This passage reports binding signal results from article PMC7819943, “Rice protein-binding microarrays: a tool to detect cis-acting elements near promoter regions in rice”.

The chains behind the UniProt entries cited, without tags or fusion partners.
UniProt Q0JBA9, entry or part of it: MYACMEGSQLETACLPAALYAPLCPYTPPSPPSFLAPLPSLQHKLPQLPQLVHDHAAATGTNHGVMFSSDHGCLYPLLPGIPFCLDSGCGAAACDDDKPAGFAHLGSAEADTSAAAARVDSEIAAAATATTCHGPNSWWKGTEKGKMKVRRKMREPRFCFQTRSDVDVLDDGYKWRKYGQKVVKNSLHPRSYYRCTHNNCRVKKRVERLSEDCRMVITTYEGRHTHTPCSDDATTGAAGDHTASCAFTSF

This is one part of the list.

This test addresses OsWRKY34 (Oryza sativa, UniProt Q0JBA9 1-250). Put plainly: protein-binding microarray (RPBM); PBS, 2% BSA, 51.3 ng/ul salmon testes DNA, 50 uM zinc acetate, 200 nM TF, 25 C, 1 h; high values mean tight binding. Conditions: protein: recombinant; tags: N-terminal polyhistidine and DsRed monomer fusion (pET32a); label: CyDye5-dUTP incorporated in the synthesized complementary strand; 3' TTTTT single-stranded linker to array surface; dsDNA, one strand shown. Summed up:
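Using Ni–NTA, transcription factors fused N-terminally to polyhistidine and DsRed were purified after expression in E. coli BL21-CodonPlus. These were incubated at 200 nM with a blocked, double-stranded custom Agilent array for 1 h at 25 °C in a buffer containing 50 µM zinc acetate, and the array was washed. The binding signal is per-feature fluorescence intensity (arbitrary units) on an Axon 4000B scanner.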
On to “ATCCAGCACACTCTAATTCTATTTGTTCACATGTTGTTATCGGAGTCACCTAGTGCAG”, for which the binding signal is 10000 fluorescence intensity (a.u.).
The same measure for “AGTAATTGACTATATTATTGAACTTGCTCTTACACACGCACGGAGTCACCTAGTGCAG”: 8730 fluorescence intensity (a.u.).
As to “CCACGAGCTATACCAAGTACTCTCTTTCTCACTCGATTGACGGAGTCACCTAGTGCAG”, the binding signal was 9080 fluorescence intensity (a.u.).
On to “TATGTTTTGTATGGTGTGGTTCAACATTTGAACTATATAGCGGAGTCACCTAGTGCAG”, for which the binding signal was 8930 fluorescence intensity (a.u.).
With “CACGTTTCCATCTCCCTTGATGCAATTCACTAAACACAAACGGAGTCACCTAGTGCAG”, the binding signal is 8100 fluorescence intensity (a.u.).
“AACTTTGTTCATTTCTTTTCAATTATTATTTGTGCTCTGACGGAGTCACCTAGTGCAG”: the binding signal is 10200 fluorescence intensity (a.u.).
“CCCTTCGTCGCCGCTACTGCAGTGGCTACCCAAATCTCGCCGGAGTCACCTAGTGCAG”: the binding signal was 8060 fluorescence intensity (a.u.).
As to “TTACTTCTACTCTTATTCATCATCCTCATCAAGCCCAATTCGGAGTCACCTAGTGCAG”, the binding signal was 8240 fluorescence intensity (a.u.).
As to “ACCAACGAACGGACGCTGTCATGTCACCTCTCTTAATCTTCGGAGTCACCTAGTGCAG”, the binding signal is 8610 fluorescence intensity (a.u.).
As for “GGTCTTGTCTGTTGTGTTAGCCATTTGTACCAACTCATGACGGAGTCACCTAGTGCAG”, the binding signal is 12000 fluorescence intensity (a.u.).
The same measure for “ACAAACCTATTTGTCTCTTGATCAACTCAACTGCTAAATTCGGAGTCACCTAGTGCAG”: 8370 fluorescence intensity (a.u.); for “GCGCGGGCCCCACCCACCTCTTGGCCCATTCCCCAAGAAACGGAGTCACCTAGTGCAG”: 8480 fluorescence intensity (a.u.); for “TTGGTGGACTTTTCGCTCGTTTGGTTGGCCAACCGAAAAACGGAGTCACCTAGTGCAG”: 8180 fluorescence intensity (a.u.).
The figure for “TCATATCTCTTCTCTACCAATCATATTTATTCTTCATCTACGGAGTCACCTAGTGCAG” is 9600 fluorescence intensity (a.u.); for “TGTCGCGAATTAGTCCAAGATTATGGATGGGTTTTTATTACGGAGTCACCTAGTGCAG” it is 9460 fluorescence intensity (a.u.); for “GCCCTGACCCGCCAAGTCGCGATCGCAACTCACACATGCTCGGAGTCACCTAGTGCAG” it is 10500 fluorescence intensity (a.u.).
On to “CTCACTTTTTTTCTCTTTTGGATTTCTTTCTGCCGTCATCCGGAGTCACCTAGTGCAG”, for which the binding signal was 13900 fluorescence intensity (a.u.).
Turning to “AATTTTATGCAGGTGCTGTACCCTATGTGCTGCTTTTTTTCGGAGTCACCTAGTGCAG”, the binding signal is 10300 fluorescence intensity (a.u.).
The same measure for “CTCCCGTCTCGTCGTCTCCTCCGCTCCTTGCGCCATCTCGCGGAGTCACCTAGTGCAG”: 11100 fluorescence intensity (a.u.); for “ATTAGTGGGCCAGTCTGCCATTGGACGCTTAGGTGCTTGTCGGAGTCACCTAGTGCAG”: 8380 fluorescence intensity (a.u.); for “GTTTTTCCTTTTAAGGTGCTTATATTTCATCCAAAATTTTCGGAGTCACCTAGTGCAG”: 9900 fluorescence intensity (a.u.).
The figure for “AGAGTTGTTTTGGGATTTTTTTTCATCGCGGTTTATTCTTCGGAGTCACCTAGTGCAG” is 9310 fluorescence intensity (a.u.); for “AAGATTCTGGAACCTTCTAGACGCACCCGCTGCCCGTATACGGAGTCACCTAGTGCAG” it is 9700 fluorescence intensity (a.u.); for “TTTGCCCATTAGTTTCTCATTGATAATCACCGACACTTTCCGGAGTCACCTAGTGCAG” it is 8990 fluorescence intensity (a.u.).
In the case of “TTTTCCTATCATTTGTTTTGCACACGCGTTCCTATACGATCGGAGTCACCTAGTGCAG”, the binding signal was 9480 fluorescence intensity (a.u.).
The same measure for “AATAGATGACATTTTTGACTTTTTATTTGTAACGTTTGATCGGAGTCACCTAGTGCAG”: 10500 fluorescence intensity (a.u.); for “GGCGGTGAGTTTGTGTTTGTTTTCTGCTGTGTCTGTGCGACGGAGTCACCTAGTGCAG”: 8070 fluorescence intensity (a.u.).
Turning to “ATCAGCCGCTTCTCCTCCTCCACGTCCATCGCCGCCGGCGCGGAGTCACCTAGTGCAG”, the binding signal was 8080 fluorescence intensity (a.u.).
For “TTGGAAATTTGCTATTCCTAGGTGGTGATTTGTGGGCGTTCGGAGTCACCTAGTGCAG”, the binding signal was 8940 fluorescence intensity (a.u.).
“GAGTTGTATAGGAGTTGTATATGATTCAAATTTACTTTGTCGGAGTCACCTAGTGCAG”: the binding signal was 8340 fluorescence intensity (a.u.).
As to “GTATATATATATATATGTGTGTGTGTGTGTATATATATATCGGAGTCACCTAGTGCAG”, the binding signal is 8410 fluorescence intensity (a.u.).
“CACCCATCTCCTTGCCGGCCTCTCCACCCCGCCTCTTTCGCGGAGTCACCTAGTGCAG”: the binding signal was 9120 fluorescence intensity (a.u.).
The same measure for “ACATGTTTTCTGCTTTACGATATTGCTTTCAGTACACCATCGGAGTCACCTAGTGCAG”: 8150 fluorescence intensity (a.u.).
For “GATAATAGGTTCTATGTGCGCTTCAGTTTCAAATCTTTTTCGGAGTCACCTAGTGCAG”, the binding signal is 12700 fluorescence intensity (a.u.).
As to “TGAAGGGAAATCTGAATCTGGACATGGCAAAGGCGTTGACCGGAGTCACCTAGTGCAG”, the binding signal was 12400 fluorescence intensity (a.u.).
Regarding “GTGTAGGTAAGATGGTAGAAGTTGGTTTTTTTGATAAAATCGGAGTCACCTAGTGCAG”, the binding signal was 8130 fluorescence intensity (a.u.).
“TTCATCAGCTGAGGTCGGCACTTGCTCATCTTTGCCGATTCGGAGTCACCTAGTGCAG”: the binding signal was 9420 fluorescence intensity (a.u.).
With “GCACACACTCTCCCTTTGCCTCGCGCAGAGGCGGCCGCGCCGGAGTCACCTAGTGCAG”, the binding signal was 8150 fluorescence intensity (a.u.).
“AGCAACTGTTTAATCCTTGACCTTCTGCTTGGTCTAGTGACGGAGTCACCTAGTGCAG”: the binding signal is 8250 fluorescence intensity (a.u.).
On to “CCACACACCACGATCTCCCGTACCTTCTCTCTGCGAGATGCGGAGTCACCTAGTGCAG”, for which the binding signal is 10100 fluorescence intensity (a.u.).
Consider “GGATTTTTTGAAAAAAAATTTCGCCCTTTTTTACCGCGTTCGGAGTCACCTAGTGCAG”, for which the binding signal was 8820 fluorescence intensity (a.u.).
With “CTTAGGGTTCAGGGTCTAGGCGTCTGTTTATCCTTTATCTCGGAGTCACCTAGTGCAG”, the binding signal was 9800 fluorescence intensity (a.u.).
In the case of “CTCTCTCTATCCATCTCTTTCTCTCTCTCTTACACAACAACGGAGTCACCTAGTGCAG”, the binding signal is 8150 fluorescence intensity (a.u.).
Take “GTTACAGGATGTCTGACCTTCATTTTCTTTCAGCTGAAGGCGGAGTCACCTAGTGCAG”: the binding signal was 8170 fluorescence intensity (a.u.).
For “CATCAGATAACCAGCCAACACAACCATGAGGGGAGGGGAGCGGAGTCACCTAGTGCAG”, the binding signal was 8790 fluorescence intensity (a.u.).
Take “AAATCTCGTCTTTGTTTAGTATCTTTAACAACCATTTGTCCGGAGTCACCTAGTGCAG”: the binding signal is 9830 fluorescence intensity (a.u.).
On to “GATTGATTATCCTTTTCTTAAACTATTTTCCTGTTTTTCACGGAGTCACCTAGTGCAG”, for which the binding signal is 13200 fluorescence intensity (a.u.).
Consider “ATTGGTAGTATCGAGAGTCAATTTGTACTGTTCCATTTTTCGGAGTCACCTAGTGCAG”, for which the binding signal is 9230 fluorescence intensity (a.u.).
For the sequence “ATCAATCAATTTTTCGGCGTCCTAATTACCTGCAGGAACACGGAGTCACCTAGTGCAG”, the binding signal is 8900 fluorescence intensity (a.u.).
The figure for “CCTTCTCGGGCCTCGGTTTGCTCAGATCCACCGCGTCGCGCGGAGTCACCTAGTGCAG” is 10700 fluorescence intensity (a.u.).
On to “TTCCATCGATCCCTTATCCTGTTTAAACCTTCTAGAATCTCGGAGTCACCTAGTGCAG”, for which the binding signal was 9580 fluorescence intensity (a.u.).
“CTCCCTATCGGCGGCCGTTACCACTGCCTGTCGCTGCCATCGGAGTCACCTAGTGCAG”: the binding signal is 12600 fluorescence intensity (a.u.).
Take “GCCGCCGCCGCCGCAGCAGCCGCCACCGCCGCCGGAATCCCGGAGTCACCTAGTGCAG”: the binding signal was 8080 fluorescence intensity (a.u.).
Turning to “TCGGTGGATTCGCGTCGTTGGGTTTGGCCGCTGGGAGCGGCGGAGTCACCTAGTGCAG”, the binding signal was 8100 fluorescence intensity (a.u.).
